# According to PubChem BioAssay AID330 (DTP/NCI, 2004):
# The list shows only some results of the screen, not a fair sample: it is rich in T/C values a quarter to a half above the control, in often repeated tests (any T/C) and in doses without a T/C. Further doses and runs are listed elsewhere. T/C gives the treated animals as a percentage of the vehicle group. Some doses have a count of surviving animals in place of a T/C: the source files T/C as zero there, which appears to mark a toxic dose or a test without result, not a measured value. Some survivor counts are full or nearly so, which does not show that the dose was tolerated: the source hardly ever lists a survival T/C far under the control, and the zero likely stands for such cases as well. Counts of survivors are from the toxicity check (mostly the fifth day) where no day follows; animals may have died later. Schedule codes are those of the source, taken here to give the interval after Q, in days (D) or hours (H), and the number of doses after X. Some doses were run more than once; the results are listed from low to high. For survival time, this PubChem deposit counts one and a half times the control or more as active, and values a quarter to a half above the control carry no call in these data; other NCI protocols may use other cut-offs. Counts like (3×) give the number of equal values in this list. Some T/C values carry the count of animals alive at the toxicity check (mostly the fifth day); where none is given, no animal had died by that day.
# Test system: P388 leukemia ip, CD2F1 mice, survival T/C
# Assay: NCI In Vivo Anticancer Drug Screen. Data for tumor model P388 Leukemia (intraperitoneal) in CD2F1 (CDF1) mice
# Conditions: T/C endpoint: median survival time, higher T/C = longer survival
compound,measurement,setting,value
N[C@@H](Cc1ccc(N(CCCl)CCCl)cc1)C(=O)O,T/C,"dose: 10.0 mg/kg/injection, schedule: Q01DX001 (ip), vehicle: water, evaluated on day 35",234 % of control
same,T/C,"dose: 10.0 mg/kg/injection, schedule: Q04DX003 (ip), vehicle: saline, evaluated on day 30",267 and 291 % of control
same,T/C,"dose: 10.0 mg/kg/injection, schedule: Q04DX003 (ip), vehicle: saline, evaluated on day 45",148 and 290 % of control
same,T/C,"dose: 10.0 mg/kg/injection, schedule: Q04DX003 (ip), vehicle: saline, evaluated on day 50",447 % of control
same,T/C,"dose: 10.0 mg/kg/injection, schedule: Q04DX003 (ip), vehicle: saline, evaluated on day 60",106 and 588 % of control
same,T/C,"dose: 10.0 mg/kg/injection, schedule: Q04DX003 (ip), vehicle: water, evaluated on day 30","90, 116, 118, 127 (2×), 136, 141, 194, 209, 223, 256, 260, 266, 272, 283 % of control"
same,T/C,"dose: 10.0 mg/kg/injection, schedule: Q04DX003 (ip), vehicle: water, evaluated on day 35",160 and 296 % of control
same,T/C,"dose: 10.0 mg/kg/injection, schedule: Q04DX003 (ip), vehicle: water, evaluated on day 40","128, 214, 241 (2×), 268, 358, 431 % of control"
same,T/C,"dose: 10.0 mg/kg/injection, schedule: Q04DX003 (ip), vehicle: water, evaluated on day 45",324 % of control
same,survivor count,"dose: 10.0 mg/kg/injection, schedule: Q04DX003 (ip), vehicle: water",5 of 6
same,T/C,"dose: 11.0 mg/kg/injection, schedule: Q04DX003 (ip), vehicle: saline",125 % of control
same,survivor count,"dose: 12.0 mg/kg/injection, schedule: Q04DX003 (ip), vehicle: Klucel (hydroxypropylcellulose) (HPC)",6 of 6
same,T/C,"dose: 12.5 mg/kg/injection, schedule: Q01DX001 (ip), vehicle: saline",560 % of control
same,survivor count,"dose: 12.5 mg/kg/injection, schedule: Q04DX003 (ip), vehicle: saline",8 of 8
same,T/C,"dose: 12.5 mg/kg/injection, schedule: Q04DX003 (ip), vehicle: water",133 % of control
same,T/C,"dose: 15.0 mg/kg/injection, schedule: Q01DX001 (ip), vehicle: saline, evaluated on day 11",220 % of control
same,T/C,"dose: 15.0 mg/kg/injection, schedule: Q01DX001 (ip), vehicle: saline, evaluated on day 30",297 % of control
same,T/C,"dose: 15.0 mg/kg/injection, schedule: Q01DX001 (ip), vehicle: saline, evaluated on day 44",225 % of control
same,T/C,"dose: 15.0 mg/kg/injection, schedule: Q01DX001 (ip), vehicle: saline, evaluated on day 45","185, 262, 316, 416, 420, 432, 436, 441, 445 (3×), 450 % of control"
same,T/C,"dose: 15.0 mg/kg/injection, schedule: Q01DX001 (ip), vehicle: saline, evaluated on day 47",355 % of control
same,T/C,"dose: 15.0 mg/kg/injection, schedule: Q01DX001 (ip), vehicle: saline, evaluated on day 49",471 % of control
same,T/C,"dose: 15.0 mg/kg/injection, schedule: Q01DX001 (ip), vehicle: saline, evaluated on day 52",287 % of control
same,T/C,"dose: 15.0 mg/kg/injection, schedule: Q01DX001 (ip), vehicle: saline, evaluated on day 60","208, 211, 242, 535, 540, 560, 566, 576 (2×), 582 (3×), 588, 600 % of control"
same,survivor count,"dose: 15.0 mg/kg/injection, schedule: Q04DX002 (ip), vehicle: saline",8 of 8
same,T/C,"dose: 15.0 mg/kg/injection, schedule: Q04DX003 (ip), vehicle: saline",130 % of control
same,T/C,"dose: 15.0 mg/kg/injection, schedule: Q04DX003 (ip), vehicle: water, evaluated on day 30","88, 92, 96, 118, 121, 132, 148, 194, 266, 267 % of control"
same,T/C,"dose: 15.0 mg/kg/injection, schedule: Q04DX003 (ip), vehicle: water, evaluated on day 35",132 and 298 % of control
same,T/C,"dose: 15.0 mg/kg/injection, schedule: Q04DX003 (ip), vehicle: water, evaluated on day 45",102 % of control [5 of 6 alive]
same,T/C,"dose: 15.0 mg/kg/injection, schedule: Q04DX003 (ip), vehicle: water, evaluated on day 60",279 % of control
same,survivor count,"dose: 15.0 mg/kg/injection, schedule: Q04DX003 (ip), vehicle: water",6 of 6
same,survivor count,"dose: 16.0 mg/kg/injection, schedule: Q01DX005 (ip), vehicle: saline",6 of 6
same,survivor count,"dose: 16.0 mg/kg/injection, schedule: Q01DX005 (ip), vehicle: water",6 of 6
same,survivor count,"dose: 16.0 mg/kg/injection, schedule: Q01DX009 (ip), vehicle: Klucel (hydroxypropylcellulose) (HPC)",4 of 6
same,survivor count,"dose: 16.0 mg/kg/injection, schedule: Q01DX009 (ip), vehicle: saline",10 of 10
same,survivor count,"dose: 16.0 mg/kg/injection, schedule: Q01DX009 (ip), vehicle: suspension in saline",6 of 6
same,survivor count,"dose: 16.0 mg/kg/injection, schedule: Q03HX008 (ip), vehicle: saline",0 of 6 and 1 of 6
same,T/C,"dose: 16.0 mg/kg/injection, schedule: Q04DX003 (ip), vehicle: saline",125 % of control
same,T/C,"dose: 16.5 mg/kg/injection, schedule: Q04DX003 (ip), vehicle: saline",147 % of control
same,survivor count,"dose: 20.0 mg/kg/injection, schedule: Q01DX001 (ip), vehicle: Klucel (hydroxypropylcellulose) (HPC)",6 of 6
